Laboratory results published in PubChem BioAssay AID504467 (National Center for Advancing Translational Sciences (NCATS), 2011).
About 7,700 (2.3%) of roughly 330,000 compounds were called active. This list was built around the results that the source calls inconclusive (neither active nor inactive); the mix of calls is not that of the screen. Calls come from the whole dose curve; as a rule, active = well fitted inhibition curve with a large enough effect; inconclusive = small, poorly fitted or top-dose-only effect, or effect the other way; inactive = flat fitted curve, though single readings scatter. A potency beside an inconclusive call is a rough fit, not a confirmed value.

Test: qHTS screen for small molecules that inhibit ELG1-dependent DNA repair in human embryonic kidney (HEK293T) cells expressing luciferase-tagged ELG1; note: nearly all actives have a fitted effect of over 55% in size
Details: HEK293T ELG1-luciferase reporter, luminescence, 16 h, DNA damage induced by 5-fluorouridine; series mostly up to 46.1 µM
How it was run: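 HEK293T cells expressing luciferase-tagged ELG1 (2,000/well) received 5-Fluorouridine plus compound or DMSO for 16 hr at 37 °C. Luciferase was read by ONE-Glo luminescence after 30 min at room temperature.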
Potency is the fitted concentration of half-maximal effect.

Compound | Potency
COc1ccc(NC(=O)c2cc(-c3ccccn3)nc3ccccc23)c(OC)c1 | active: 8.2 µM
Fc1ccc(-c2nnc(SCc3cccnc3)o2)cc1 | inconclusive: 23.1 µM [activator, partial curve]
O=C(CN1CCN(c2nc(-c3ccccc3)cs2)CC1)NNC(=O)c1ccco1 | inactive
Cc1c(NC(=O)CCSCCc2ccccn2)cccc1[N+](=O)[O-] | inconclusive: 18.3 µM [inhibitor, partial curve, poor fit]
Cc1ccc2c(Cl)cc(Cl)c(OCC(=O)NCc3ccco3)c2n1 | inactive
c1ccc(-n2nc3c(ccc4cnnc43)[nH]2)cc1 | inconclusive: 14.1 µM [activator, partial curve]
Cc1ccc(-c2cccc(C3CC=CC4C3C(=O)N(Cc3ccccc3)C4c3cc(C)ccc3F)c2)cc1 (stereo not given) | inactive
Cc1ccc(NS(=O)(=O)c2ccc(C(=O)N3CCN(c4ncccn4)CC3)cc2)cc1 | active: 5.8 µM
CN(Cc1ccccc1)c1ccc2nnc(-c3ccccc3)n2n1 | inconclusive: 20.6 µM [inhibitor, partial curve, poor fit]
C[n+]1ccc(/C=C/c2ccc(Br)cc2)cc1 | inconclusive: 8.2 µM [inhibitor, partial curve, poor fit]
CCOC(=O)NC(=O)c1cn(CCNCCO)c(=O)[nH]c1=O | inactive
O=[N+]([O-])c1cc(-c2nnc(Nc3ccc(O)cc3)c3ccccc23)ccc1N1CCOCC1 | active: 18.4 µM
CCOc1ccccc1N(CC(=O)Nc1cccc(OC)c1)S(=O)(=O)c1ccccc1 | inactive
Oc1ccc2ccccc2c1CN1CCN(C/C=C/c2ccccc2)CC1 | inconclusive: 1.64 µM [inhibitor, full curve]
O=C(COC(=O)c1cccs1)c1ccc2ccccc2c1 | inconclusive: 25.9 µM [activator, partial curve]
CC(=O)N(C)C(c1ccc(N(C)C)cc1)c1nnnn1-c1c(C)cccc1C (stereo not given) | inconclusive: 16.4 µM [activator, partial curve, poor fit]
COc1ccc(NC(=O)Nc2ccccc2SC)cc1OC | inconclusive: 20.6 µM [activator, partial curve]
O=C(NCc1ccccn1)c1ccc(Cl)c(S(=O)(=O)N2CCCCC2)c1 | inconclusive: 29.1 µM [inhibitor, single point]
O=S(=O)(/N=C(/NC(=S)Nc1ccccc1)c1ccccc1)c1ccc(Cl)cc1 | inconclusive: 16.4 µM [activator, partial curve]
Cc1ccc(C(C)C)c(OCC(=O)NCC(c2cccs2)N2CCOCC2)c1 (stereo not given) | inactive

Reformatted: entries from further up.
c1ccc(-n2nc3c(ccc4cnnc43)[nH]2)cc1
  Potency: inconclusive: 14.1 µM [activator, partial curve]
O=C(COC(=O)c1cccs1)c1ccc2ccccc2c1
  Potency: inconclusive: 25.9 µM [activator, partial curve]
